Among the data in ChEMBL document CHEMBL1134969, “Synthesis and evaluation of water-soluble paclitaxel prodrugs” (Bioorg Med Chem Lett, 2002) are IC50 values, retold here.

The IC50 is the concentration needed to halve the response being measured. Low values mean greater potency, high ones weaker potency.

Test [1] deals with MCF7. Briefly: cells. The conditions noted are these: Homo sapiens, MCF7, 96 h.
The subject of test [2] is MCF7. Description: cells. Conditions: Homo sapiens, MCF7, 72 h.

As for `CC(=O)O[C@H]1C(=O)[C@@]2(C)[C@H]([C@H](OC(=O)c3ccccc3)[C@]3(O)C[C@H](OC(=O)[C@H](O)[C@@H](NC(=O)c4ccccc4)c4ccccc4)C(C)=C1C3(C)C)[C@]1(OC(C)=O)CO[C@@H]1C[C@@H]2O` [PACLITAXEL], the half-inhibitory concentration (IC50) amounted to 0.5 nM in test [1] and 2.87 nM in test [2].
